No constants are given. Whether binding was seen depends on the method and setting. Binding seen in cells or lysates may run through a third protein. Some entries that bind do so weakly or less than the wild type. For some of these results: Where a sequence is shown, tags or fusion partners need not be part of it.
Tests used:
[1] = molecular target: Myc-tagged NLRP3 (mouse) (UniProt Q8R4B8); assay: co-IP; HEK293T cells transfected with Myc-NLRP3 and Flag-β-TrCP1, with or without YAP constructs; IP with anti-Myc, probed with anti-Flag
[2] = molecular target: NLRP3 (endogenous, mouse peritoneal macrophages) (mouse (endogenous in peritoneal macrophages)) (UniProt Q8R4B8); assay: proximity ligation; Duolink; primary macrophages, LPS 4 h or not, fixed and permeabilised; primary antibody pairs of different species
[3] = molecular target: Myc-tagged NLRP3 (mouse) (UniProt Q8R4B8); assay: co-IP; HEK293T cells co-transfected with tagged plasmids; IP buffer (1% Nonidet P-40, 50 mM Tris-HCl pH 7.4, 50 mM EDTA, 150 mM NaCl); anti-Flag M2 or anti-Myc affinity gel 2 h; immunoblot
[4] = molecular target: T1, Flag-tagged β-TrCP1 (mouse) (UniProt Q3ULA2); assay: as above
T1 sequence: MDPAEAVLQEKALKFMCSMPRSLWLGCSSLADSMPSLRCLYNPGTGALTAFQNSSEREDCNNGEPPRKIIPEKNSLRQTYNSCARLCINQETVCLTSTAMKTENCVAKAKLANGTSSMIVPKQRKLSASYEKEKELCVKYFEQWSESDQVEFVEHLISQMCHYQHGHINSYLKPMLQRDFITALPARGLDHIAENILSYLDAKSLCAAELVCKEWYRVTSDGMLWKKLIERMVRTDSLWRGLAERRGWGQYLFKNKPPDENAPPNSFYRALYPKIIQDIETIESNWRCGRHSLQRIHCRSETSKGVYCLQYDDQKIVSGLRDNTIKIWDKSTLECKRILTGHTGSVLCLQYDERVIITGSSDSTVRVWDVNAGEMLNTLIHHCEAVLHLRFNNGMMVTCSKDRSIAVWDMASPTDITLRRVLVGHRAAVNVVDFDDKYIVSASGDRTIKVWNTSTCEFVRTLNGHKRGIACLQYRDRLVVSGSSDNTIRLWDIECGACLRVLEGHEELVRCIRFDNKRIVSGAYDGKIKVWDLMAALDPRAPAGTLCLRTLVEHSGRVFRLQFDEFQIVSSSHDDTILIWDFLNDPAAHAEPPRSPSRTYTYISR

Amino acid sequences for entries named in this document (tags omitted). A change or cut given only in a name is not applied to a line headed by its entry.
UniProt Q8R4B8: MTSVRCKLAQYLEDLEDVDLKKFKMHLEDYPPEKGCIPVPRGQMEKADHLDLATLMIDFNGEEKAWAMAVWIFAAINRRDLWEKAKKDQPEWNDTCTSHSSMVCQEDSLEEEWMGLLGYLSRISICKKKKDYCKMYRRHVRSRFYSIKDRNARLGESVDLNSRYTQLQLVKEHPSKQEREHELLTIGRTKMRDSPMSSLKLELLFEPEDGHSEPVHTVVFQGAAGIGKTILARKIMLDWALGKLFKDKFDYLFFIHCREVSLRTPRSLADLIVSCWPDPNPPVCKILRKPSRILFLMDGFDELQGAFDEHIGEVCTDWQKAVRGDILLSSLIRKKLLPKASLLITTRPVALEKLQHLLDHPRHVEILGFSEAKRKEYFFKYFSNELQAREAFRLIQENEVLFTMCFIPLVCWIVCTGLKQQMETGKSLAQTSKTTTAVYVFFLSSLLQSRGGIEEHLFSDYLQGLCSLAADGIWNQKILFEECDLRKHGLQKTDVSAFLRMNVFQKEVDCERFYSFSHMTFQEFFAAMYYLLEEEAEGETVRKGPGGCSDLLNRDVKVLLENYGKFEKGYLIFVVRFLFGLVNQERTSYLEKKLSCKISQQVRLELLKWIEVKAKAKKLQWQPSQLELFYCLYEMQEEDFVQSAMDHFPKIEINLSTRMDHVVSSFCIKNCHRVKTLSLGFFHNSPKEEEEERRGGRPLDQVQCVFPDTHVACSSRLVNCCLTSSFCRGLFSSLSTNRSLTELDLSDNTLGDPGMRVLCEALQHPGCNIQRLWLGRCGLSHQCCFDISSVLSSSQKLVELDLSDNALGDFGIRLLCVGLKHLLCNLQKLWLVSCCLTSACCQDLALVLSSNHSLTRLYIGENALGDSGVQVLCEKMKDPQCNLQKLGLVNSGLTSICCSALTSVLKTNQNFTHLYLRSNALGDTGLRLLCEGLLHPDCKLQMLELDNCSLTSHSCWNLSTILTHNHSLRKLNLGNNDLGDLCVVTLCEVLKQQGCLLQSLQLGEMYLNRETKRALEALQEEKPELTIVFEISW
UniProt P46938: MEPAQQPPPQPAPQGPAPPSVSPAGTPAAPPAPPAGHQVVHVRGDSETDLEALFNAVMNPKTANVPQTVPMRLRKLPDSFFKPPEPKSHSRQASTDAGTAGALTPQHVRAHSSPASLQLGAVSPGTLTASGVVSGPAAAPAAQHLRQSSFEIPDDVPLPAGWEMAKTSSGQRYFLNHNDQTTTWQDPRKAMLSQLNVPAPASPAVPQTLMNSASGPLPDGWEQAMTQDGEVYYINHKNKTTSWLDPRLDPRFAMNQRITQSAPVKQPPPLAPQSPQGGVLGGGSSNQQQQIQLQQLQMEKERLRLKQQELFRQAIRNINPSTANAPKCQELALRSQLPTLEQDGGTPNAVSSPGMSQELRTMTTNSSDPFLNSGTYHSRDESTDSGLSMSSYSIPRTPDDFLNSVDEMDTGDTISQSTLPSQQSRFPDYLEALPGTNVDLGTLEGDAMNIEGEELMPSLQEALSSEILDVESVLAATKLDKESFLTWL

[5] = molecular target: NLRP3 S194A/S197A/S198A (mouse) (UniProt Q8R4B8); assay: as above
[6] = molecular target: Myc-tagged NLRP3 (mouse) (UniProt Q8R4B8); assay: as above; remark: listed apart in the source
[7] = molecular target: NLRP3 S891A/S895A mutant (mouse) (UniProt Q8R4B8); assay: as above
[8] = molecular target: Myc-tagged NLRP3 (mouse) (UniProt Q8R4B8); assay: co-IP; HEK293T cells transfected with Myc-NLRP3 and Flag-β-TrCP1, with or without YAP constructs; IP with anti-Myc, probed with anti-Flag; remark: listed apart in the source
[9] = molecular target: NLRP3 (endogenous, mouse peritoneal macrophages) (mouse (endogenous in peritoneal macrophages)) (UniProt Q8R4B8); assay: co-IP; endogenous proteins; Yap fl/fl lyz2-Cre or Yap fl/fl mouse peritoneal macrophages stimulated with LPS for 4 h or not; IP with anti-NLRP3, probed with anti-β-TrCP1

His-YAP (from UniProt P46938 1-488) was tested, and the binding [1] was “binds”.

In the case of “YAP (endogenous, mouse peritoneal macrophages) (from UniProt P46938 1-488)”, the binding [2] is reported as “binds”.

In the case of “YAP C-terminal transactivation domain (residues 151–488) (from UniProt P46938 151-488) (domain or fragment)”, the binding [3] is reported as “binds”.

“wild-type YAP (transfected; tag not told for these experiments) (from UniProt P46938 1-488)” was tested, and the binding [4] was “binds” and the binding [3] was “binds”.

B1: Flag-tagged β-TrCP1 (protein, UniProt Q3ULA2 1-605)
chain: T1 sequence
B1 was tested, and the binding [5] was “binds”, the binding [6] was “binds” and the binding [7] was “no binding”. The binding [8] was “binds”.

B2: β-TrCP1 (endogenous, mouse peritoneal macrophages) (protein, UniProt Q3ULA2 1-605)
chain: T1 sequence
B2 was tested, and the binding [9] was “binds”.
